For 30 sequences, z-score results are on record in PubChem BioAssay AID1508600 (Functional Genomics Laboratory (NCATS/FGL), 2020).

About 3,700 (7%) of roughly 53,000 sequences were called active.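 Rule for the calls: active = gene knockdowns whose robust z-score for IL-1 alpha signal is at least 2 or at most -2, so actives lie on both sides; inactive = the rest.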 The list shows a part of the results.

This experiment can be described thus: Components of the Cytosolic LPS Sensing Pathway: Gene Identification via Genome-wide siRNA Screen.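 Note: robust z of the log signal after scaling to non-targeting control siRNA wells of the plate.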 To be noted: RAW264.7 macrophages, IL-1a HTRF, actives lie on both sides, screened at 100 nM (by protocol), cells primed 5 h with Pam3CSK4 first. A digest of the protocol:
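IL-1a HTRF of supernatants after 24 hour LipidA transfection of Pam3CSK4-primed (5 hours) RAW264.7 cells, 48h post-siRNA transfection (100 nM). Scores: percent of plate negative-control median, then log-based robust z-score.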
Take GGAAGAAGUUCAAGAUUGATT against Bap1: the z-score is inactive: -1.17. Under GGAGGUAGAAAAGACAAAATT against Jrk stands inactive: 1.96; under GGGUAAUUGAAUGACUGAGTT against Ppcdc, inactive: 1.96; under “GGGAGUGCCAAAGUCGAAUTT against D16Ertd472e”, inactive: -0.425. Under GCUCAGUUGGCAUCCUGUUTT against Odf2l stands inactive: -0.582. Regarding GGUGGAGCUGCUAUCACAUTT against Suco, the z-score was inactive: 0.751. Turning to GGACAUGGGUGAUAAAGUUTT against Acad12, the z-score was inactive: -1.59. For GGCUCUUGUUGCCUUGUGUTT against Crabp1, the z-score was inactive: -1.89. With GGCGAACACUAAAAAGGCATT against Zbtb10, the z-score was inactive: -1.6. Under CGUUAAUUGCCCUCAAAGATT against Spon1 stands inactive: 1.03; under GGUCCUAACCGACAUGUCUTT against Vrk1, inactive: 0.305.

Consider CCUAUACGUGCACCAAUGGTT against Srpx2, for which the z-score was inactive: 0.862. Under GGACAUUGUUGUUCUUGGUTT against Psma7 stands inactive: -0.844. As for GGAUGAGUCCAAUCUUCUCTT against Anapc4, the z-score is inactive: 1.44. Under CGACCUCACAGUUGACUACTT against Mthfsd stands inactive: 1.08.

With GCGACUACAAGGAUACCCUTT against Krt71, the z-score was inactive: 0.169. Under GGACAAUUUACAAAGAUGCTT against Rnmt stands inactive: -0.486. Turning to CCAUGGCUUACGAGAGACATT against Mavs, the z-score was inactive: -0.884.

For the sequence CGGGCACAUAAUUUACCAATT against Rfx4, the z-score is inactive: 0.921.

As to GCUGAUCAGAGACCAUUACTT against Cmss1, the z-score is active: -2.26. Under GGAAAACCCUGAGCAAGAGTT against Olfr916 stands inactive: -0.105. Under GGAUAUUUUUAGUGUCUUGTT against Homer2 stands inactive: -1.19; under “GGUACUCCUAGAACUCUACTT against 2410002F23Rik”, inactive: 1.01.

Regarding GGAUGAAAGUUGUAUGUAUTT against Ctsk, the z-score was inactive: -0.606. Under GGCCUGAACAAAGUUACAUTT against Slc22a7 stands inactive: 0.252; under GCUUCUGUCAUAAUGAUAUTT against Pramel6, active: -2.33; under GUGGACAAGACCUUCCUGUTT against Cmtm5, inactive: 0.147. Take GGUGGAACCCAAUGACACCTT against Cers5: the z-score is inactive: 1.21.

Take CCAUGUCAAACACCUUAGUTT against Crebzf: the z-score is inactive: 1.26. As for GGAAUGGAAUAGCAGAGCUTT against Ramac, the z-score was inactive: -1.49.
